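Plate-reader measure of the Venus reporter marking one vaccinia stage in infected cells (the cell line is not named here); read time unknown.
The test concentration is not given here.
Percent change in Venus reporter signal; lower (more negative) values mean stronger inhibition of that viral stage.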

Values are in %.
How 0% and 100% were set is not given here.
Common to all entries: measured here: Venus reporter, other viral stage.
This is a side read-out of the assay, for part of the compounds, not drawn at random.

For C[C@@H]1CN([C@H](C)CO)C(=O)c2cc(NC(=O)CCCCCC(=O)Nc3ccccc3N)ccc2O[C@@H]1CN(C)Cc1ccc(Cl)c(Cl)c1 the result was activity change (Venus) -56.97%. With COc1ccccc1NC(=O)N1CC[C@@H]2[C@H]1c1cc(-c3ccc(F)cc3)ccc1N(C)[C@H]2CO the assay gave activity change (Venus) -57.06%. With O=C(C[C@H]1C[C@@H]2c3cc(NC(=O)Nc4ccccc4F)ccc3O[C@@H]2[C@@H](CO)O1)NC1CCCCC1 the assay gave activity change (Venus) -23.89%. C[C@@H]1CN([C@@H](C)CO)C(=O)c2cc(C#Cc3cccc(F)c3)cnc2O[C@H]1CN(C)C(=O)C1CCCCC1 gave activity change (Venus) -57.1%. C[C@@H]1CN([C@H](C)CO)C(=O)c2ccccc2-c2ccccc2CO[C@@H]1CN(C)Cc1ccc(-c2ccccc2)cc1 gave activity change (Venus) -34.41%. With C[C@H](CO)N1C[C@H](C)[C@@H](CN(C)S(=O)(=O)c2cn(C)cn2)Oc2cc(C#Cc3ccc(F)cc3)ccc2S1(=O)=O the assay gave activity change (Venus) -37.12%. With C[C@@H]1CN([C@@H](C)CO)C(=O)c2cc(NS(=O)(=O)c3ccccc3)ccc2O[C@@H](C)CCCCO[C@@H]1CN(C)CC1CCCCC1 the assay gave activity change (Venus) -62.16%.

COc1ccc(S(=O)(=O)N(C)C[C@H]2Oc3cc(C#CC4CCCCC4)ccc3S(=O)(=O)N([C@@H](C)CO)C[C@H]2C)cc1 gave activity change (Venus) -47.38%. C[C@@H]1CCCCO[C@@H](CN(C)Cc2ccc(Cl)c(Cl)c2)[C@H](C)CN([C@@H](C)CO)C(=O)c2cc(NS(=O)(=O)c3cccs3)ccc2O1 gave activity change (Venus) -72.69%. For Cc1ccc(S(=O)(=O)Nc2ccc3c(c2)C(=O)N([C@H](C)CO)C[C@@H](C)[C@@H](CN(C)C(=O)C2CCCCC2)OCCCC[C@H](C)O3)cc1 the result was activity change (Venus) -53.56%. For C[C@@H]1CCCCO[C@@H](CN(C)S(=O)(=O)c2ccc(F)cc2)[C@H](C)CN([C@H](C)CO)C(=O)c2cc(NC(=O)CCC(F)(F)F)ccc2O1 the result was activity change (Venus) -30.66%. Result for COc1ccc2c3c([nH]c2c1)[C@H](CO)N(C(=O)c1ccccc1)CC31CN(C(=O)Nc2cccc(F)c2)C1 was activity change (Venus) -81.35%. Result for O=C(NCc1nc2ccccc2[nH]1)C1=C[C@@H](C2CCCCC2)C[C@@H](OCc2ccc(CO)cc2)O1 was activity change (Venus) -35.89%. With C[C@@H]1CN([C@@H](C)CO)C(=O)Cc2cc(NC(=O)NC3CCCCC3)ccc2O[C@H]1CN(C)Cc1ccc(Oc2ccccc2)cc1 the assay gave activity change (Venus) -33.41%.

O=C(CN1CCOCC1)N1CCCCN2[C@@H](CO)[C@H](c3ccc(C#Cc4ccccc4)cc3)[C@@H]2C1 gave activity change (Venus) -25.45%. C[C@@H]1CN([C@H](C)CO)S(=O)(=O)c2ccc(-c3cccc(F)c3)cc2O[C@H]1CN(C)C(=O)c1cccc(F)c1 gave activity change (Venus) -45.07%. CC(C)NC(=O)N1CCCCN2[C@H](C1)[C@H](c1ccc(C#Cc3ccccc3F)cc1)[C@@H]2CO read activity change (Venus) -58.1%. For Cc1ccc(-c2ccc3c(c2)O[C@H](CN(C)Cc2cccnc2)[C@H](C)CN([C@@H](C)CO)S3(=O)=O)cc1 the result was activity change (Venus) -54.91%. Result for C[C@@H]1CN([C@H](C)CO)C(=O)c2c(c3ccccc3n2C)-c2ccccc2CO[C@H]1CN(C)C(=O)Nc1ccc2c(c1)OCO2 was activity change (Venus) -43.3%. COc1ccccc1C#Cc1ccc2c(c1)O[C@@H](CN(C)Cc1ccccc1)[C@H](C)CN([C@H](C)CO)S2(=O)=O gave activity change (Venus) -31.44%. With COc1cccc(-c2ccc3c(c2)O[C@H](CN(C)Cc2ccncc2)[C@H](C)CN([C@@H](C)CO)S3(=O)=O)c1 the assay gave activity change (Venus) -38.46%.

For C[C@H](CO)N1C[C@H](C)[C@H](CN(C)C(=O)C2CCCCC2)Oc2cc(C#Cc3ccncc3)ccc2S1(=O)=O the result was activity change (Venus) -31.73%. C[C@H](CO)N1C[C@H](C)[C@H](CN(C)C(=O)Nc2ccc3c(c2)OCO3)Oc2ncc(-c3ccc(F)cc3)cc2C1=O read activity change (Venus) -24.2%. With COc1ccccc1-c1cnc2c(c1)C(=O)N([C@H](C)CO)C[C@@H](C)[C@@H](CN(C)Cc1ccc(F)cc1)O2 the assay gave activity change (Venus) -20%. Result for CCCC#Cc1ccc([C@H]2[C@H](CO)N3C(=O)CN(C(=O)Nc4cccc(F)c4)C[C@@H]23)cc1 was activity change (Venus) -21.4%. C[C@@H]1CCCCO[C@@H](CN(C)CC2CCCCC2)[C@H](C)CN([C@H](C)CO)C(=O)c2cc(NC(=O)C3CCCCC3)ccc2O1 read activity change (Venus) -56.84%.

3 of the entries, repeated:

structure,activity change (Venus) (%)
COc1ccc2c3c([nH]c2c1)[C@H](CO)N(C(=O)c1ccccc1)CC31CN(C(=O)Nc2cccc(F)c2)C1,-81.35
O=C(CN1CCOCC1)N1CCCCN2[C@@H](CO)[C@H](c3ccc(C#Cc4ccccc4)cc3)[C@@H]2C1,-25.45
C[C@H](CO)N1C[C@H](C)[C@H](CN(C)C(=O)Nc2ccc3c(c2)OCO3)Oc2ncc(-c3ccc(F)cc3)cc2C1=O,-24.2

From PubChem BioAssay record AID1053133 (Broad Institute, 2014).